Results reported in PubChem BioAssay AID2685 (National Center for Advancing Translational Sciences (NCATS), 2010).
Out of some 320,000 compounds screened, about 2,100 (0.66%) were called active. Inconclusive means that the source gave no clear call. Such entries were picked first, then a sample of the others. The call rests on the fitted dose curve; in most records, active means well fitted inhibition curve with a large enough effect in the signal ratio, with a control signal flat (not every such curve was filed as active); inconclusive means small, poorly fitted or top-dose-only effect, or effect the other way, or a change in a side signal; inactive means flat fitted curve, though single readings scatter; the % refers to the signal ratio. Where the call is inconclusive, the potency comes from a doubtful curve fit.

assay: qHTS Assay for Lipid Storage Modulators in Drosophila S3 Cells; settings: BODIPY lipid droplet fluorescence, 18-24 h, cells fed with added oleic acid; lipid storage change, negative = inhibition: at 46.1 µM (top of the series) unless noted
How it was run: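 Laser-scanning cytometry quantifies lipid droplet accumulation (500–530 nm total intensity; droplet/cell object ratio) in oleic acid-fed (400 uM added) Drosophila S3 cells treated with a concentration series. 20 uM Triacsin C defined 100% inhibition.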
On the % scale 0 is the no-effect control and ±100 the full control effect; potency means the concentration at half of the fitted maximal effect.

Compound	Potency	lipid storage change, negative = inhibition
COC(=O)CC(=O)CSc1nc2c(cc1C#N)CCC2	inconclusive: 18.4 µM [activator, partial curve]	–
COc1ccc2nc(NC(=O)CS(=O)(=O)c3ccc(C)cc3)sc2c1	–	inconclusive: -77.7%
COc1ccc(NC(=O)CSc2nc3ccccc3nc2N2CCOCC2)cc1	inconclusive: 14.6 µM [falling, single point]	–
CC(C)(C)c1ccc(NC(=O)COC(=O)c2ccc(CN3CCCC3=O)cc2)cc1	inconclusive: 1.03 µM [activator, full curve, poor fit]	–
O=C(CSc1nc2ccccc2o1)N/N=C/c1ccccc1C(=O)O	–	inconclusive: 11.2%
COc1ccc(/C=C(\C#N)c2nc3ccccc3[nH]2)cc1O	–	inconclusive: -85.3%
CCCCOC(=O)c1ccc(NC(=O)C(=O)NCC2CCCO2)cc1 (stereo not drawn)	–	inconclusive: -22.3%
Cc1ccc(SCC(=O)NCc2ccccc2)cc1	inconclusive: 0.651 µM [activator, single point]	–
COC(=O)C1C(O)=C(C=NCC(C)N=CC2=C(O)C(C(=O)OC)C(C)(C)CC2=O)C(=O)CC1(C)C (stereo not drawn)	–	inconclusive: 2.58%
CCOC(=O)N1[C@@H]2C=C(C)[C@@H]2[C@@H]2[C@@H](C)C(=O)N21	–	inconclusive: 10.2%
CC(C)CN(C(=O)COC(=O)c1ccccn1)c1c(N)n(Cc2ccccc2)c(=O)[nH]c1=O	–	inconclusive
CCc1cc2c(=O)n(N)c(CCC(=O)O)nc2s1	–	inconclusive: 34.3%
Cc1[nH]n(C)c(=O)c1[N+](=O)[O-]	–	inactive
O=C(Nc1ccccc1)c1ccccc1O	–	inconclusive: -40.9%
N=C1/C(=C\c2ccc(OC(=O)c3ccc(F)cc3)cc2)C(=O)N=C2SC(N3CCCC3)=NN12	–	inconclusive: 10.2%
COc1cc(NC(=S)NCCc2c[nH]c3ccccc23)c(OC)cc1Cl	–	inconclusive: -14%
CCCCn1c(N)c(N(CC(C)C)C(=O)CSCc2c(C)noc2C)c(=O)[nH]c1=O	–	inconclusive
Clc1ccc(SCc2nc3ccccc3[nH]2)cc1	inconclusive: 20.6 µM [falling, single point]	–
COc1ccc(S(=O)(=O)Cc2ccc(C(=O)NCc3ccco3)o2)cc1	inconclusive: 3.26 µM [activator, partial curve, poor fit]	–
C=CCn1c(SCC(=O)c2cccs2)nc2sc(C)cc2c1=O	inconclusive: 9.2 µM [activator, partial curve, poor fit]	–
CCC1Oc2ccc(C)cc2N(CC(=O)NCC2COc3ccccc3O2)C1=O (stereo not drawn)	–	inconclusive: 1.71%
O=C1ON=C(c2ccccc2)/C1=C/c1ccccc1	–	inactive
COC(=O)c1cc(OC)c(OC)cc1NC(=O)Nc1ccc(OC)cc1OC	inconclusive: 1.16 µM [activator, single point]	–
O=C(CNC(=O)c1ccc(OC(F)F)cc1)NC1CCCc2ccccc21 (stereo not drawn)	–	inconclusive: 19.1%
CC(c1ccccc1)N1C(=O)c2ccc(C(=O)NCc3cccnc3)cc2C1=O (stereo not drawn)	–	inconclusive: -31.8%
CCOc1ccc(C(=O)CCC(=O)NC2=NCCS2)cc1	–	inconclusive: -16.6%

Retrieved by compound from the entries so far:
Compound	Potency	lipid storage change, negative = inhibition
N=C1/C(=C\c2ccc(OC(=O)c3ccc(F)cc3)cc2)C(=O)N=C2SC(N3CCCC3)=NN12	–	inconclusive: 10.2%
COc1ccc2nc(NC(=O)CS(=O)(=O)c3ccc(C)cc3)sc2c1	–	inconclusive: -77.7%

Next part:

Compound	Potency	lipid storage change, negative = inhibition
CC12CCC(C(=O)N3CCC(Cc4ccccc4)CC3)(C(=O)C1=O)C2(C)C (stereo not drawn)	–	inconclusive: 5.49%
CCOC(=O)c1ccccc1N/C=C1\CCCC1=O	–	inconclusive: -43.9%
COc1ccc(-n2c(SCCC(=O)O)nnc2-c2ccncc2)cc1	inconclusive: 3.66 µM [rising, single point]	–
O=C(COC(=O)C1CCC(=O)N1)Nc1ccc(Cl)cc1Cl (stereo not drawn)	–	inactive
O=C(/C=C/c1ccc(S(=O)(=O)N2CCOCC2)cc1)N1CCN(c2ccc(F)cc2)CC1	–	inconclusive: -25.2%
Cc1ccc(S(=O)(=O)N(C)c2ccc(C(=O)Nc3cccc(C)n3)cc2)cc1	–	inconclusive: -32.7%
COc1ccc(OC)c(C(=O)COC(=O)C2CC3CCCC(C2)C3=O)c1 (stereo not drawn)	inconclusive: 29.1 µM [cytotoxic, single point]	–
Cc1cc(C)nc(Nc2n[nH]c(-c3ccccc3C)n2)n1	–	inconclusive: -7.3%
CCCCNC(=O)C1CCN(Cc2ccccn2)CC1	–	inconclusive: -39.9%
COC(=O)c1ccc(NC(=O)COC(=O)C2=NN(c3ccccc3)C(=O)CC2)cc1	–	inconclusive: -4.89%
CCOc1ccc(-c2nnc(SCC(=O)O)n2Cc2ccccc2)cc1	–	inconclusive: -33.4%
C/C(=N\NC(=O)c1cc(C)oc1C)c1ccc(C)c([N+](=O)[O-])c1	–	inconclusive: -4.15%
CCN(c1ccccc1)S(=O)(=O)c1nnc(NC(=O)C(C)(C)C)s1	–	inconclusive: -28%
CC(C)CCOC(=O)C(C)Sc1n[nH]c(=O)[nH]c1=O (stereo not drawn)	–	inconclusive: 27.1%
CCCCNC(=O)OC1CCS(=O)(=O)C1 (stereo not drawn)	–	inconclusive: -9.14%
Cn1nccc1C(=O)Nc1ccc2c(c1)OCCO2	–	inconclusive: 0.287%
Cc1ccc(CN2CCSc3ccc(C(=O)NCCCN4CCN(C)CC4)cc32)cc1	inconclusive: 29.1 µM [activator, single point]	–
O=C1C2C3C=CC(C2C(=O)N1c1ccccc1O)C1C2C(=O)N(c4ccccc4O)C(=O)C2C31 (stereo not drawn)	inconclusive: 0.231 µM [falling, full curve, poor fit]	–
COc1cc(OC)c(NC(=O)N2CCOCC2)cc1Cl	inconclusive: 29.1 µM [activator, single point]	–
N#Cc1nc(COc2ccccc2Cl)oc1NCc1ccc(F)cc1	–	inconclusive: -21.5%
CC(OCC(O)CNCC1COc2ccccc2O1)c1ccc(Cl)cc1 (stereo not drawn)	inconclusive: 23.1 µM [activator, single point]	–
COc1ccccc1NC(=S)NC(=O)Cc1ccc(Cl)cc1	inconclusive: 29.1 µM [falling, partial curve, poor fit]	–
Cc1cccc(C)c1NC(=O)/C(C#N)=C/c1ccc(-c2ccc(C(=O)O)cc2)o1	–	inconclusive: -100%
CC(=O)c1c(N2CCN(C)CC2)nc(=S)n(-c2cc(C)ccc2C)c1C	–	inconclusive: -8.51%
CCCOc1ccc(N2C(=O)CC(NCc3cccnc3)C2=O)cc1 (stereo not drawn)	–	inconclusive: 2.95%
Cc1cccc(NC(=O)CCc2c(C)nn(-c3ccc(N4CCCCC4)nn3)c2C)c1	inconclusive: 6.51 µM [falling, single point]	–

Compound	Potency	lipid storage change, negative = inhibition
COc1cc(C(=O)N(Cc2ccco2)Cc2cc3ccccc3[nH]c2=O)cc(OC)c1OC	inconclusive: 4.11 µM [activator, partial curve]	–
COc1ccc(N2CCN(C(=O)c3cc(=O)c4cc(C)c(C)cc4o3)CC2)cc1	–	inconclusive: 16.2%
COc1cc(C)nc(N2CCCC(C(=O)NCC(C)C)C2)n1 (stereo not drawn)	–	inconclusive: 7.62%
C1CCc2nnc(C3CC3)n2CC1	–	inconclusive: 15.8%
CCCCn1c(-c2ccc(OC)cc2)nc2c(=O)n(C)c(=O)[nH]c21	–	inactive
Nc1n[nH]c(C2CC2)c1N=Nc1ccc(Cl)c(Cl)c1	–	inconclusive: -19.5%
COc1cccc(CNC(=O)CCNS(=O)(=O)c2ccc(Br)s2)c1	–	inconclusive: -10.7%
COc1ccccc1NS(=O)(=O)c1cc(NC(=O)CN2C(=O)NC3(CCCC3)C2=O)ccc1C	–	inconclusive
CCOC(=O)C1=C(C)NC(C)=C(C(=O)OCC)C1C(=O)OCC(=O)N1CC(C)OC(C)C1 (stereo not drawn)	inconclusive: 9.2 µM [activator, partial curve]	–
CSc1nnc(-c2sc3cc(Cl)ccc3c2Cl)n1C	active: 23.1 µM	–
COCCCNC(=O)CNC(=S)N(Cc1ccc(F)cc1)C1CCCCC1	inconclusive: 10.3 µM [activator, partial curve]	–
COc1ccc(NS(=O)(=O)c2cc(NC(=O)c3ccc(=O)[nH]c3)ccc2C)cc1	inconclusive: 20.6 µM [activator, partial curve, poor fit]	–
Cc1occc1C(=O)NCCc1ccc(Cl)cc1	inconclusive: 20.6 µM [activator, single point]	–
O=C(CSc1nnnn1-c1cccnc1)NCc1cccs1	inconclusive: 2.31 µM [activator, full curve, poor fit]	–
CN(C)S(=O)(=O)c1cc(NC(=O)c2ccc(-n3ccnc3)c([N+](=O)[O-])c2)ccc1Cl	active: 20.6 µM	–
COc1ccc(N(C(=O)c2ccco2)S(=O)(=O)c2ccccc2)cc1	–	inconclusive: 43.3%
N#Cc1c(N)n(CCCN2CCOCC2)c2nc3ccccc3nc12	–	inconclusive: 31.8%
COc1ccc(N(C(=O)c2ccco2)C(C(=O)NC2CCCC2)c2cccnc2)c(OC)c1 (stereo not drawn)	–	inconclusive: 51.9%
CC(=O)NCCc1nc2ccccc2n1CCCCOc1ccccc1	–	inconclusive: -18.2%
CC1CCCN(C(=O)c2ccc([N+](=O)[O-])o2)C1 (stereo not drawn)	inconclusive: 1 µM [falling, full curve, poor fit]	–
CCn1c(SCC(=O)N/N=C/C(C)=C/c2ccco2)nnc1-c1ccccc1	–	inconclusive: 19.2%
CCCOc1ccc(CCC(=O)O)cc1	–	inactive
CC(C)(CNc1ccc(C(F)(F)F)cc1[N+](=O)[O-])N1CCOCC1	inconclusive: 18.4 µM [falling, single point]	–
CCN(c1ccccc1)S(=O)(=O)c1ccc(C(=O)N2CC(C)CC(C)C2)cc1 (stereo not drawn)	–	inconclusive: 27.5%
C=CCn1c(SCC(=O)N(CC)C2CCS(=O)(=O)C2)nnc1-c1ccccc1 (stereo not drawn)	–	inconclusive: 30%
Fc1ccccc1NC(=S)NCCc1ccc(Cl)cc1	inconclusive: 0.116 µM [activator, partial curve, poor fit]	–

Gathered by group, the entries above containing an aryl methoxy group.
Compound	Potency	lipid storage change, negative = inhibition
COc1ccc2nc(NC(=O)CS(=O)(=O)c3ccc(C)cc3)sc2c1	–	inconclusive: -77.7%
COc1ccc(NC(=O)CSc2nc3ccccc3nc2N2CCOCC2)cc1	inconclusive: 14.6 µM [falling, single point]	–
COc1ccc(/C=C(\C#N)c2nc3ccccc3[nH]2)cc1O	–	inconclusive: -85.3%
COc1cc(NC(=S)NCCc2c[nH]c3ccccc23)c(OC)cc1Cl	–	inconclusive: -14%
COc1ccc(S(=O)(=O)Cc2ccc(C(=O)NCc3ccco3)o2)cc1	inconclusive: 3.26 µM [activator, partial curve, poor fit]	–
COC(=O)c1cc(OC)c(OC)cc1NC(=O)Nc1ccc(OC)cc1OC	inconclusive: 1.16 µM [activator, single point]	–
COc1ccc(-n2c(SCCC(=O)O)nnc2-c2ccncc2)cc1	inconclusive: 3.66 µM [rising, single point]	–
COc1ccc(OC)c(C(=O)COC(=O)C2CC3CCCC(C2)C3=O)c1 (stereo not drawn)	inconclusive: 29.1 µM [cytotoxic, single point]	–
COc1cc(OC)c(NC(=O)N2CCOCC2)cc1Cl	inconclusive: 29.1 µM [activator, single point]	–
COc1ccccc1NC(=S)NC(=O)Cc1ccc(Cl)cc1	inconclusive: 29.1 µM [falling, partial curve, poor fit]	–
COc1cc(C(=O)N(Cc2ccco2)Cc2cc3ccccc3[nH]c2=O)cc(OC)c1OC	inconclusive: 4.11 µM [activator, partial curve]	–
COc1ccc(N2CCN(C(=O)c3cc(=O)c4cc(C)c(C)cc4o3)CC2)cc1	–	inconclusive: 16.2%
COc1cc(C)nc(N2CCCC(C(=O)NCC(C)C)C2)n1 (stereo not drawn)	–	inconclusive: 7.62%
CCCCn1c(-c2ccc(OC)cc2)nc2c(=O)n(C)c(=O)[nH]c21	–	inactive
COc1cccc(CNC(=O)CCNS(=O)(=O)c2ccc(Br)s2)c1	–	inconclusive: -10.7%
COc1ccccc1NS(=O)(=O)c1cc(NC(=O)CN2C(=O)NC3(CCCC3)C2=O)ccc1C	–	inconclusive
COc1ccc(NS(=O)(=O)c2cc(NC(=O)c3ccc(=O)[nH]c3)ccc2C)cc1	inconclusive: 20.6 µM [activator, partial curve, poor fit]	–
COc1ccc(N(C(=O)c2ccco2)S(=O)(=O)c2ccccc2)cc1	–	inconclusive: 43.3%
COc1ccc(N(C(=O)c2ccco2)C(C(=O)NC2CCCC2)c2cccnc2)c(OC)c1 (stereo not drawn)	–	inconclusive: 51.9%
